Results reported in paper PMC11548754.
These are yes or no findings as the source states them, for the method shown. For some assays here: Binding seen in cells or lysates may run through a third protein. Some entries that bind do so weakly or less than the wild type.

Amino acid sequences for entries named in this document (tags omitted).
UniProt Q9SAD4: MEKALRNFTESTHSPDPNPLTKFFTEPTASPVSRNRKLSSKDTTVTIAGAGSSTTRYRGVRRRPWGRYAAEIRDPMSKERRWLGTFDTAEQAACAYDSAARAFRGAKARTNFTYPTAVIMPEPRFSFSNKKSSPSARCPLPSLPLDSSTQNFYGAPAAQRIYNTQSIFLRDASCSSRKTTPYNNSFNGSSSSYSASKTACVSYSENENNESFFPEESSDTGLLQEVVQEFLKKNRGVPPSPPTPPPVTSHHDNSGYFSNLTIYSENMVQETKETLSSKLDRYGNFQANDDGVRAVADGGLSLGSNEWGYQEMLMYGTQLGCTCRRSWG
UniProt Q6EVK6: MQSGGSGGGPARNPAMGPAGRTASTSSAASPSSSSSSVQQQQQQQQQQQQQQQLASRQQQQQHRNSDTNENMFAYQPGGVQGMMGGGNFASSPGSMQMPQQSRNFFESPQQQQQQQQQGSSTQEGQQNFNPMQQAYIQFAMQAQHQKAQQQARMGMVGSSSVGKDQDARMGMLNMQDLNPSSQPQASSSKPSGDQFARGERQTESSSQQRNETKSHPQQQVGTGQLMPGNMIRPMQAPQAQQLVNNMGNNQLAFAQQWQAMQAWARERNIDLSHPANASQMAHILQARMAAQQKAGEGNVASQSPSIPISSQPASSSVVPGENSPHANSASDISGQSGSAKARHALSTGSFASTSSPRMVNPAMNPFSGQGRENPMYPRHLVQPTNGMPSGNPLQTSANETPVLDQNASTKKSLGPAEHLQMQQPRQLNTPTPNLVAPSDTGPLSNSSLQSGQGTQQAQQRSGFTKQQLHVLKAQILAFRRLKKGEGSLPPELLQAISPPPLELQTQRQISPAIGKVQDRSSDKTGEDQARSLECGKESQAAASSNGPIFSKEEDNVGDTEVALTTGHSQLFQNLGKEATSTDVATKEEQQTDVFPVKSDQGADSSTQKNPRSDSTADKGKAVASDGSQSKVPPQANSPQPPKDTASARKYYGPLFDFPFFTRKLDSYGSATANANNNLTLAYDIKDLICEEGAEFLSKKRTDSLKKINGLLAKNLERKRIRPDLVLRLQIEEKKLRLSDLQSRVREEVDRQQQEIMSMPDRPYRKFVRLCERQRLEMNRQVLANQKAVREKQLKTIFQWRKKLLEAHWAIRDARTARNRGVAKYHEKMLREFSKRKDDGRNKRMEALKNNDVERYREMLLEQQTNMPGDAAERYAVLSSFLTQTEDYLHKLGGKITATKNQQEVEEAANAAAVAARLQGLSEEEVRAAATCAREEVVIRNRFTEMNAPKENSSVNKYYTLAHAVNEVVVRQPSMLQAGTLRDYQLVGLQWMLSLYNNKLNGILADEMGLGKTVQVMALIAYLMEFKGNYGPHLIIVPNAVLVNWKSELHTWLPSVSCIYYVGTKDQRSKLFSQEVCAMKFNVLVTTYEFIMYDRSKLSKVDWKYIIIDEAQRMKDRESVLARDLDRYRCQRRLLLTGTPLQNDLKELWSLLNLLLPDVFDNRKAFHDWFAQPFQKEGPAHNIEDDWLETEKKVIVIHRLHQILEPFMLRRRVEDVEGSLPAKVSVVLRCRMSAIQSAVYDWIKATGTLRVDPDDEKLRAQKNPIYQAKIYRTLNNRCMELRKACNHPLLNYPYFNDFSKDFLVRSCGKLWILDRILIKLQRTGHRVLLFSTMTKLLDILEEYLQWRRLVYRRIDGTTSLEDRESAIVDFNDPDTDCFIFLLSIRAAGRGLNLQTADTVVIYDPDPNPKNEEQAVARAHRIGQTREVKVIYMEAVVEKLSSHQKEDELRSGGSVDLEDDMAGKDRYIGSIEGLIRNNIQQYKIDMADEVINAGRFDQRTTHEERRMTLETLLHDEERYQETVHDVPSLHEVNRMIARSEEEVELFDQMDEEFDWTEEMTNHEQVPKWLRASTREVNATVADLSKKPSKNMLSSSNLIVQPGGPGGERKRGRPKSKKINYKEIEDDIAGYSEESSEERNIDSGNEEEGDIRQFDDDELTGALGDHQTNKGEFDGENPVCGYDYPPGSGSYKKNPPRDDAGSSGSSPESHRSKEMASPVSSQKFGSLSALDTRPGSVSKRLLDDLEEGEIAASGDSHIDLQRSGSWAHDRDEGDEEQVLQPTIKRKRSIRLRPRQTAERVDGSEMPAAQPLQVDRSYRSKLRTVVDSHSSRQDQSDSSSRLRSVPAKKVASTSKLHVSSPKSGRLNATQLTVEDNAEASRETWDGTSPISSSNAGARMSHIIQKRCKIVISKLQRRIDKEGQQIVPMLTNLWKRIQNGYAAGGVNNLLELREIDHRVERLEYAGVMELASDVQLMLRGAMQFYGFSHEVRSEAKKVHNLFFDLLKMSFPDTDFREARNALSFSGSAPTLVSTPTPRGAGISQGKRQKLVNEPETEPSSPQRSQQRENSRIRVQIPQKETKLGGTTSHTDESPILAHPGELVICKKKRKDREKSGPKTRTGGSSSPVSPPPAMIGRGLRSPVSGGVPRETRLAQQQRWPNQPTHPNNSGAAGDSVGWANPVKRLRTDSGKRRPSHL

What was measured:
[1] = biological target: DRN, full length, yeast two-hybrid fusion (Arabidopsis) (UniProt Q9SAD4); experiment: two-hybrid; pGBKT7 (BD) and pGADT7 (AD) fusions in yeast strain Y2H Gold; tested on SD/−Leu/−Trp/−His/−Ade in dilutions of 10^−1, 10^−2 and 10^−3
DRN-nYFP (Arabidopsis) = DRN-nYFP (Arabidopsis) (UniProt Q9SAD4); experiment: split reporter; BiFC with split YFP in inflorescence SAMs of transgenic Arabidopsis, fusions driven by the native promoters, lines made by crossing

binding [1] | binding (DRN-nYFP (Arabidopsis)) | Substance
binds | – | BRM, full length, yeast two-hybrid and three-hybrid fusion (from UniProt Q6EVK6 1-2193)
– | binds | BRM-cYFP (from UniProt Q6EVK6 1-2193)
